Measured data: PubChem BioAssay AID652243 (Drosophila RNAi Screening Center, 2013)

Purpose: 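Knock-downs that decrease or increase androgen receptor reporter signal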 (primary screen)
Cells: Drosophila S2R+ cells
Reagents: long dsRNA against Drosophila genes
Time to read-out: 72 h (48 h, then 24 h hormone)
Treatment: synthetic androgen R1881 at 10 nM for 24 h
Measurement: 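Firefly light from an androgen-responsive reporter and Renilla control light per well, raw and unnormalised, for each of two replicates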
Reading the numbers: firefly reporter light: higher = more light from androgen-responsive reporter; Renilla control light: higher = more constitutive control signal (cell number, transfection)
Call rule: 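Hit when the log firefly-to-Renilla ratio dropped or increased by a fixed fold versus the mean of GFP or LacZ controls across duplicate plates; lowering cut given as 1.5 and as 3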
Calls: active = hit: reporter lowered or raised; inactive = no hit
The deposit covers about 24,000 reagents; shown is a random part of those with a known target gene and a result. In the full data, 246 (1%) were called active. 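Plates not normalised; calls are printed but the firefly/Renilla ratio behind them is not deposited; fold cut for lowering reported inconsistently.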 Raw values vary from plate to plate and are shown uncorrected. Reagents against one gene are numbered here. Reagent sequences are not shown. Not given: the amount of reagent.

Gene | reagent no. | firefly reporter light, replicate 1 | firefly reporter light, replicate 2 | Renilla control light, replicate 1 | Renilla control light, replicate 2 | outcome
js | 1 | 1.08e5 | 1.85e5 | 1.53e6 | 2.25e6 | inactive
pasi2 | 1 | 1.17e5 | 90284 | 2.14e6 | 1.98e6 | inactive
Rcd1 | 1 | 4.46e5 | 4.92e5 | 87403 | 1.24e5 | inactive
Rcd1 | 2 | 1.02e6 | 9.26e5 | 1.29e5 | 1.22e5 | inactive
CG12998 | 1 | 4.73e5 | 4.00e5 | 2.63e6 | 2.00e6 | inactive
Slik | 1 | 7.99e5 | 8.60e5 | 1.40e6 | 1.31e6 | inactive
Slik | 2 | 1.01e6 | 1.04e6 | 1.33e6 | 1.43e6 | inactive
Slik | 3 | – | – | – | – | inactive
TBPH | 1 | 5.54e5 | 8.02e5 | 1.06e6 | 1.56e6 | inactive
TBPH | 2 | 8.94e5 | 9.11e5 | 1.90e6 | 1.89e6 | inactive
CG32379 | 1 | 1.01e5 | 1.84e5 | 1.06e6 | 1.24e6 | inactive
Brr2 | 1 | 15778 | 14063 | 2.03e5 | 2.00e5 | inactive
CG6610 | 1 | 1.86e5 | 1.90e5 | 2.29e6 | 2.16e6 | inactive
kst | 1 | 9.66e5 | 9.68e5 | 1.77e6 | 1.86e6 | inactive
CG8726 | 1 | 1.06e6 | 9.96e5 | 1.41e6 | 1.18e6 | active
CG8726 | 2 | 3.10e5 | 2.48e5 | 6.16e5 | 4.90e5 | inactive
CG8726 | 3 | – | – | – | – | inactive

Next part (5 carried over from the part before).
Gene | reagent no. | firefly reporter light, replicate 1 | firefly reporter light, replicate 2 | Renilla control light, replicate 1 | Renilla control light, replicate 2 | outcome
CG6610 | 1 | 1.86e5 | 1.90e5 | 2.29e6 | 2.16e6 | inactive
kst | 1 | 9.66e5 | 9.68e5 | 1.77e6 | 1.86e6 | inactive
CG8726 | 1 | 1.06e6 | 9.96e5 | 1.41e6 | 1.18e6 | active
CG8726 | 2 | 3.10e5 | 2.48e5 | 6.16e5 | 4.90e5 | inactive
CG8726 | 3 | – | – | – | – | inactive
CG32436 | 1 | 1.31e5 | 1.82e5 | 1.37e6 | 1.85e6 | inactive
CG32436 | 2 | 1.89e5 | 1.92e5 | 1.54e6 | 1.50e6 | inactive
ais | 1 | 40526 | 36742 | 4.86e5 | 3.39e5 | inactive
ais | 2 | 7.41e5 | 7.20e5 | 6.29e5 | 1.01e6 | inactive
GATAe | 1 | 4.37e5 | 3.74e5 | 1.67e6 | 1.68e6 | inactive
CG6739 | 1 | 1.89e5 | 1.34e5 | 1.39e6 | 1.15e6 | inactive
sna | 1 | 1.65e5 | 1.93e5 | 1.74e6 | 1.90e6 | inactive
CG42570 | 1 | 7.67e5 | 9.15e5 | 9.38e5 | 7.84e5 | inactive
bol | 1 | 2.16e5 | 1.92e5 | 5.41e5 | 6.72e5 | inactive
bol | 2 | 3.03e5 | 2.79e5 | 3.64e6 | 3.00e6 | inactive
bol | 3 | 1.69e5 | 1.59e5 | 3.57e6 | 2.01e6 | inactive
bol | 4 | 3.71e5 | 2.75e5 | 8.45e5 | 9.17e5 | inactive
CG1840 | 1 | 87209 | 69283 | 6.88e5 | 7.41e5 | inactive
CG1840 | 2 | 6.89e5 | 7.04e5 | 9.15e5 | 7.50e5 | inactive
CG43123 | 1 | 1.69e5 | 1.40e5 | 4.18e5 | 3.83e5 | inactive
Eip93F | 1 | 6.90e5 | 9.35e5 | 1.35e6 | 2.02e6 | inactive
Eip93F | 2 | 2.33e5 | 2.01e5 | 6.59e5 | 7.96e5 | inactive
PAN2 | 1 | 8.30e5 | 1.04e6 | 1.17e6 | 1.18e6 | inactive
CG17826 | 1 | 3.12e5 | 2.23e5 | 3.06e6 | 2.38e6 | inactive
CG17826 | 2 | 3.27e5 | 3.58e5 | 1.48e6 | 1.45e6 | inactive
CG17826 | 3 | 7.52e5 | 8.51e5 | 1.94e6 | 2.67e6 | inactive
MtnB | 1 | 8.38e5 | 6.16e5 | 1.98e6 | 1.53e6 | inactive
MtnB | 2 | 5.17e5 | 6.28e5 | 1.20e6 | 1.15e6 | inactive
